Results reported in US20110143963A1.
Substitutions are numbered along the chain they refer to. Results are given in words; binding and its absence hold for the method and conditions named. Some binding calls cover weakened binding; strength is not graded here.

What was measured:
GEIDTWV = target: T1, GEIDTWV; assay: phage-display sorting of C-terminal peptide Library 1 with the clamp, enriched clones sequenced
T1 sequence (peptide): GEIDTWV

GPIDTWV = target: T2, GPIDTWV; assay: as above
T2 sequence (peptide): GPIDTWV

GPLDTWV = target: T3, GPLDTWV; assay: as above
T3 sequence (peptide): GPLDTWV

GPMDTWV = target: T4, GPMDTWV; assay: as above
T4 sequence (peptide): GPMDTWV

[1] = target: T5, …; assay: phage-display sorting of C-terminal peptide Library 2 with the clamp, enriched clones sequenced [cont'd]
T5 sequence (peptide): DRMPFDSWV

[2] = target: T6, …; assay: as above; remark: listed apart in the source
T6 sequence (peptide): ERGAIDSWV

[3] = target: T7, …; assay: as above; remark: listed apart in the source
T7 sequence (peptide): ERGSIDSWV

[4] = target: T8, …; assay: as above; remark: listed apart in the source
T8 sequence (peptide): KRGAIDSWV

[5] = target: T9, …; assay: as above; remark: listed apart in the source
T9 sequence (peptide): KRGPIDSWV

[6] = target: T10, …; assay: as above; remark: listed apart in the source
T10 sequence (peptide): KRGSIDSWV

[7] = target: T11, …; assay: as above; remark: listed apart in the source
T11 sequence (peptide): KRMPIDSWV

[8] = target: T12, …; assay: as above; remark: listed apart in the source
T12 sequence (peptide): KRMPLDSWV

[9] = target: T13, …; assay: as above; remark: listed apart in the source
T13 sequence (peptide): PRGELDSWV

[10] = target: T14, …; assay: as above; remark: listed apart in the source
T14 sequence (peptide): PRGSIDSWV

[11] = target: T15, …; assay: as above; remark: listed apart in the source
T15 sequence (peptide): PRMPIDSWV

GSIDTWV = target: T16, GSIDTWV; assay: phage-display sorting of C-terminal peptide Library 1 with the clamp, enriched clones sequenced
T16 sequence (peptide): GSIDTWV

SPIDTWV = target: T17, SPIDTWV; assay: as above
T17 sequence (peptide): SPIDTWV

[12] = target: T18, …; assay: phage-display sorting of C-terminal peptide Library 2 with the clamp, enriched clones sequenced [cont'd]; remark: listed apart in the source
T18 sequence (peptide): ARGSIDSWV

[13] = target: T19, …; assay: as above; remark: listed apart in the source
T19 sequence (peptide): DRGSMDSWV

[14] = target: T20, …; assay: as above; remark: listed apart in the source
T20 sequence (peptide): ERFSIDSWV

[15] = target: T21, …; assay: as above; remark: listed apart in the source
T21 sequence (peptide): FRGEIDSWV

[16] = target: T22, …; assay: as above; remark: listed apart in the source
T22 sequence (peptide): KRFEIDSWV

[17] = target: T23, …; assay: as above; remark: listed apart in the source
T23 sequence (peptide): KRFNIDSWV

[18] = target: T24, …; assay: as above; remark: listed apart in the source
T24 sequence (peptide): KRGQIDSWV

[19] = target: T25, …; assay: as above; remark: listed apart in the source
T25 sequence (peptide): KRGSMDSWV

[20] = target: T26, …; assay: as above; remark: listed apart in the source
T26 sequence (peptide): KRSNIDSWV

[21] = target: T27, …; assay: as above; remark: listed apart in the source
T27 sequence (peptide): NRGRMDSWV

[22] = target: T28, …; assay: as above; remark: listed apart in the source
T28 sequence (peptide): RRGSIDSWV

[23] = target: T29, …; assay: as above; remark: listed apart in the source
T29 sequence (peptide): SRGAIDSWV

[24] = target: T30, …; assay: as above; remark: listed apart in the source
T30 sequence (peptide): VRGEIDSWV

[25] = target: T31, …; assay: as above; remark: listed apart in the source
T31 sequence (peptide): VRGSIDSWV

Measured: binding

B1: enhanced PDZ-b (designed binder)
chain: MKHHHHHHHHHHSSDYKDDDDKGENLYFQGSPELGFSISGGVGGRGNPFRPDDDGIFVTRVQPEGPASKLLQPGDKIIQANGYSFINIEHGQAVSLLKTFQNTVELIIVREVGNGAKQEIRVRVEKDGGSGGVSSVPTNLEVVAATPTSLLISWDAYYDSHVSYYRITYGETGGNSPVQEFTVPGSKSTATISGLKPGVDYTITVYAHYNYHYYSSPISINYRT
binds: GEIDTWV | GPIDTWV | GPLDTWV | GPMDTWV | [1] | [2] | [3] | [4] | [5] | [6] | [7] | [8] | [9] | [10] | [11]

B2: ePDZ-b1 (designed binder)
chain: B1 chain with Y158R, D159E, S160L, H161P
not listed: GEIDTWV | GPMDTWV | [1] | [2] | [3] | [4] | [5] | [7] | [8] | [9] | [10] | [11]
binds: all other assays above
